In paper PMC13082787 one finds binding data, which are given here for one substance.

Amino acid sequences for entries named in this document (tags omitted). Residues count along the entry.
UniProt P02930, residues 23-493: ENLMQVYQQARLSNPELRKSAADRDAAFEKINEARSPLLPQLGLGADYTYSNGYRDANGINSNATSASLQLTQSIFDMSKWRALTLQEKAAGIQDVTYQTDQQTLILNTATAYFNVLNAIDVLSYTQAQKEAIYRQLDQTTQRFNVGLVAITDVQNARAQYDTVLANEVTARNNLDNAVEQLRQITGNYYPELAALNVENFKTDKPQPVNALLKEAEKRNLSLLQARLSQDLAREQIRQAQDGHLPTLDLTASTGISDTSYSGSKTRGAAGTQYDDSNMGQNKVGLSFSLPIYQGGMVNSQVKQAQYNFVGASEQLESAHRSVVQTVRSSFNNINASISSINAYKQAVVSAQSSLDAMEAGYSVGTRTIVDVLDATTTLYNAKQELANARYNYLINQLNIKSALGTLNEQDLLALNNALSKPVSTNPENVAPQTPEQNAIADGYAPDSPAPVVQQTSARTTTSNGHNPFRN

Results are given in words; binding and its absence hold for the method and conditions named. Tags and fused reporters may be left off the sequences shown.

In this experiment the target is T1, Soluble LolB, N-terminally His-tagged (E. coli) (UniProt P61320).
T1 sequence: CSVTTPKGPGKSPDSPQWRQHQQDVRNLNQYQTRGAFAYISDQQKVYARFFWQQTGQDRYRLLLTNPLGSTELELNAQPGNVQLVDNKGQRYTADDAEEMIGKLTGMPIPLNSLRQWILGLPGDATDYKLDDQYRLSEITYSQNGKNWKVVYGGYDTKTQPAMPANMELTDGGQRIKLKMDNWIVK
Briefly: pull-down; TolC-FLAG mixed with N-terminally His-tagged YbjPs or LolBs, each 15 µM, then bound to Ni resin; 50 mM Tris pH 7.5, 200 mM NaCl, 0.03% β-DDM; four washes, elution with 250 mM imidazole, SDS-PAGE; both purified.

Turning to “Detergent-purified FLAG-tagged TolC (from UniProt P02930 23-493)”, the binding result is “no binding (tested: 15 µM)”.
